Where a chain is given by its changes, count along the chain named. No constants are given. Whether binding was seen depends on the method and setting. In cells and extracts the contact can be indirect. Some entries that bind do so weakly or less than the wild type. Tags and fused reporters may be left off the sequences shown.
Experiments:
[1] = target: T1, Cys38Ala mouse diacylglycerol kinase-ε with a double Myc tag at the C terminus (mouse) (UniProt Q9R1C6); experiment: co-IP; HEK293 cells coexpressing mDGKε-Myc variant and zDHHC17-HA (24 h); lysis in 150 mM NaCl, 20 mM Tris-HCl pH 7.4, 1% NP-40, 1 mM EDTA, 1 mM DTT; mDGKε-Myc immunoprecipitated on Myc-Trap Agarose, 3 h at 4°C; zDHHC17-HA revealed by immunoblotting
T1 sequence: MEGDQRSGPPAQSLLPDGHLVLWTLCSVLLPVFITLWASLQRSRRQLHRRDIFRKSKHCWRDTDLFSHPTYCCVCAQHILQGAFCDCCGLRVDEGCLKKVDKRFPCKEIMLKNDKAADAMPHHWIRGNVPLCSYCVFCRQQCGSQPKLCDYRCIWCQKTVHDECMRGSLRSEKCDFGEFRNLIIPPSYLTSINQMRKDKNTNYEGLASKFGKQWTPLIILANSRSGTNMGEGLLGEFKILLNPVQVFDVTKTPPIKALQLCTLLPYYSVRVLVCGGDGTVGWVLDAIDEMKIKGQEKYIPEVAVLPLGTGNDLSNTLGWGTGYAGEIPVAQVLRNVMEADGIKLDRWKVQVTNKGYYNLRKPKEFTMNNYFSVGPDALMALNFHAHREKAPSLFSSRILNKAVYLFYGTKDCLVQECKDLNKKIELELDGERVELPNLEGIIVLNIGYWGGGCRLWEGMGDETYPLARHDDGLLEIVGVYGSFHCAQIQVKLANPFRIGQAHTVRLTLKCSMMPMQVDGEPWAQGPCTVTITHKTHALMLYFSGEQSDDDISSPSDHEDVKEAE

Protein sequences, listed by entry. Tags and fused reporters are not part of them.
UniProt Q80TN5: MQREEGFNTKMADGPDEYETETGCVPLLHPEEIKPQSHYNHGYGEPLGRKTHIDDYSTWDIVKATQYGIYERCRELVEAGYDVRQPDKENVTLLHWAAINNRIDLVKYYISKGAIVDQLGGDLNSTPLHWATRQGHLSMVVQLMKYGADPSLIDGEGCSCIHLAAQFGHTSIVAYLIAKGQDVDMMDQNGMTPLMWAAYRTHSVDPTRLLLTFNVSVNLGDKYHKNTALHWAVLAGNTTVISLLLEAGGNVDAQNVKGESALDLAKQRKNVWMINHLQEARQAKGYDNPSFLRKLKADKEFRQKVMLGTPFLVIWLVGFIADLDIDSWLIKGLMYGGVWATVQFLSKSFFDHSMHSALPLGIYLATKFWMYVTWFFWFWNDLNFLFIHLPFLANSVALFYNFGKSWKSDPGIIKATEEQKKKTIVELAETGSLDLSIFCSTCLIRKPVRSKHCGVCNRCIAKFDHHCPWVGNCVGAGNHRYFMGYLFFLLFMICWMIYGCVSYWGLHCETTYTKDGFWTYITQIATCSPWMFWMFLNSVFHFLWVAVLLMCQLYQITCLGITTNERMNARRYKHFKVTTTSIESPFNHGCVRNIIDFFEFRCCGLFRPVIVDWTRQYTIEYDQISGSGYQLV

[2] = target: T2, wild-type mouse diacylglycerol kinase-ε with a double Myc tag at the C terminus (mouse) (UniProt Q9R1C6); experiment: as above
T2 sequence (chain, S-palmitoylated at Cys38 in a fraction of the molecules): T1 sequence with A38C

With “HA-tagged mouse S-acyltransferase zDHHC17 (from UniProt Q80TN5 1-632) (enzyme)” the binding [1] was “binds” and the binding [2] was “binds”.
